# The supplement of paper PMC12067093, “Discovery and optimisation of a covalent ligand for TRIM25 and its application to targeted protein ubiquitination” (Chemical Science, 2025)
# Amino acid sequences for entries named in this document (tags omitted). A change or cut given only in a name is not applied to a line headed by its entry.
# UniProt Q5SSJ5: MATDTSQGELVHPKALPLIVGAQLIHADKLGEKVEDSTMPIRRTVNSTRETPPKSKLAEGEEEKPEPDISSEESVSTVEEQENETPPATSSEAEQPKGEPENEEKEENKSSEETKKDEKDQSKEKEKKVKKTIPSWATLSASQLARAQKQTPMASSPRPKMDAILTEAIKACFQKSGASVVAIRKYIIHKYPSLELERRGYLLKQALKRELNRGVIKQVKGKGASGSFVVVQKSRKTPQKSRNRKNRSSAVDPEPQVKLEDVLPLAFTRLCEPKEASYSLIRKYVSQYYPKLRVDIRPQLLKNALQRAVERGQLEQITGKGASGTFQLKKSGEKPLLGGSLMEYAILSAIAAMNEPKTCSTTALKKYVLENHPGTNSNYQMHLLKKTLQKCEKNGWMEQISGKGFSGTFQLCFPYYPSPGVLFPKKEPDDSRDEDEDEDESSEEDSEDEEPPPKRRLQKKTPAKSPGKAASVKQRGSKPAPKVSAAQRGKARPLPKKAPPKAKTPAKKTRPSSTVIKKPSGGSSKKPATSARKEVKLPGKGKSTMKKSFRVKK
# UniProt P14866: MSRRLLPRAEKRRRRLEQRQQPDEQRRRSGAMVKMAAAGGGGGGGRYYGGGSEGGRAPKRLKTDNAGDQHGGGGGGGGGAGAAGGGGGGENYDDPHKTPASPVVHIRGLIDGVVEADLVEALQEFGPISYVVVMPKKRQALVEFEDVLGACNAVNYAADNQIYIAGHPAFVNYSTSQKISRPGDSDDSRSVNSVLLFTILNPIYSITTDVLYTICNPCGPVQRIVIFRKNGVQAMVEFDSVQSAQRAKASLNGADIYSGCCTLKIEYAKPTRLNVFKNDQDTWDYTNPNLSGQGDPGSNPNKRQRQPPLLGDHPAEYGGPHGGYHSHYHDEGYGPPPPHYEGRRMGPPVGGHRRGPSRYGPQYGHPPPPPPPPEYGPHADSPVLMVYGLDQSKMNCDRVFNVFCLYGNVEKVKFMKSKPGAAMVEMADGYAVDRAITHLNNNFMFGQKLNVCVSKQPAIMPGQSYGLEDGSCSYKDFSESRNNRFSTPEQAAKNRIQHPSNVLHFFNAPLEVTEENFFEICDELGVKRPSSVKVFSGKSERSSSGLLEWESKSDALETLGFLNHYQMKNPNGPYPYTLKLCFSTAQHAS
# UniProt O75330: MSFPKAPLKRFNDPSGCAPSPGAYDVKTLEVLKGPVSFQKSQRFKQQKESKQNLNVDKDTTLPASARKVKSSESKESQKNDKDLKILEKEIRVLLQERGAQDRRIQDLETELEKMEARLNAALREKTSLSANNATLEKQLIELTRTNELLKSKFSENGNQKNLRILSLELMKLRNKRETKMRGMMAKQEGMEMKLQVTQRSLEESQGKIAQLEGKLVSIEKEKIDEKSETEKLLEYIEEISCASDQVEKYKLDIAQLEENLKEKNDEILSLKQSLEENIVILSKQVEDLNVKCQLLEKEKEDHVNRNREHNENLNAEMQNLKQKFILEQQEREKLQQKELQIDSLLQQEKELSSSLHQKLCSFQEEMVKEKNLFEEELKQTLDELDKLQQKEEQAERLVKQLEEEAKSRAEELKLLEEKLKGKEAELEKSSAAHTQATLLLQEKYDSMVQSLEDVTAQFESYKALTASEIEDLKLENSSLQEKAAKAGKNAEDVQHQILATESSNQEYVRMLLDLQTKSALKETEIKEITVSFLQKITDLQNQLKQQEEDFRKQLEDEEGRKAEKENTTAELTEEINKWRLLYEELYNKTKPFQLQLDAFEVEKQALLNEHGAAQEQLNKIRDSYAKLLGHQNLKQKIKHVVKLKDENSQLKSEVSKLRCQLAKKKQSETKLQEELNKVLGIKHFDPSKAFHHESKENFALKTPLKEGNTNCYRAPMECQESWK
# UniProt P11142, whole entry, looked up: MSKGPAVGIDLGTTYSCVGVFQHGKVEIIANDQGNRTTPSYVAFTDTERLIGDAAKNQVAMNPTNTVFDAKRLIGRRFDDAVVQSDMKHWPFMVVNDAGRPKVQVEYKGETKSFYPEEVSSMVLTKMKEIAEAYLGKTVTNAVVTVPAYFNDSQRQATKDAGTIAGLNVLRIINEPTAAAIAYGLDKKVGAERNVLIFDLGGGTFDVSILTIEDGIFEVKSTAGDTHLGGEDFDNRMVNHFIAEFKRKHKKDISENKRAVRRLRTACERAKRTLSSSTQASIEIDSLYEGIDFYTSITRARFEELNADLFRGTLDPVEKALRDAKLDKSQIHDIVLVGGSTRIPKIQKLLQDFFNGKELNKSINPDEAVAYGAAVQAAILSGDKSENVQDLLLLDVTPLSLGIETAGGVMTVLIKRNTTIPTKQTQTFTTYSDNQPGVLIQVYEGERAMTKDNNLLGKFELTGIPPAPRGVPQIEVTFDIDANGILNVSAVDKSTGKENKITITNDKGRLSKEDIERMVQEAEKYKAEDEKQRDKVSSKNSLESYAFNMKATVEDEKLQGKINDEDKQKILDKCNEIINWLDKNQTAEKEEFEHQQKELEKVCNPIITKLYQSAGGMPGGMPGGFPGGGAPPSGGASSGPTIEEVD
# UniProt Q92598: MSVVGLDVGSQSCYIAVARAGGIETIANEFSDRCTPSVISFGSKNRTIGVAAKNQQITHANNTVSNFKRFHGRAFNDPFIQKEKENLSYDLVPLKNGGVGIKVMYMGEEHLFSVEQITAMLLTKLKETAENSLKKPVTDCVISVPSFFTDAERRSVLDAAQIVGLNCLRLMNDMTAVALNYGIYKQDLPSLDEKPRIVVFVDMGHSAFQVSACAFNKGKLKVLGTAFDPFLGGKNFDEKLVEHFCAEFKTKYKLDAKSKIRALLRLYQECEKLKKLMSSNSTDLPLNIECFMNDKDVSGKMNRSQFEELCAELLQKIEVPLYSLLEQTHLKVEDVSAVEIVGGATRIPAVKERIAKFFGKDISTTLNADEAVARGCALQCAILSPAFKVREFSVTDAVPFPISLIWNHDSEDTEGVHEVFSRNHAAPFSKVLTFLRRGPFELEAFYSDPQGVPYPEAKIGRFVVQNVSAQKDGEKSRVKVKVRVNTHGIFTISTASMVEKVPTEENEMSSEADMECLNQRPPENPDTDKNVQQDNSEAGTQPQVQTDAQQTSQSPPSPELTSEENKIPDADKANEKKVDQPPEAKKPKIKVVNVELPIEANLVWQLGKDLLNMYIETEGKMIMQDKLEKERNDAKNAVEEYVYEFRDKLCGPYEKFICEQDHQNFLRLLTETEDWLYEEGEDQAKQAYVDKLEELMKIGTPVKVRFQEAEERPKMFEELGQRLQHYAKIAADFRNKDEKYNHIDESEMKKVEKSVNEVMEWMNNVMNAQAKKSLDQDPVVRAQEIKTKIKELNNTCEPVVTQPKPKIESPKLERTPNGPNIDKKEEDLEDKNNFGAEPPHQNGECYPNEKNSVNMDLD
# UniProt Q6YN16: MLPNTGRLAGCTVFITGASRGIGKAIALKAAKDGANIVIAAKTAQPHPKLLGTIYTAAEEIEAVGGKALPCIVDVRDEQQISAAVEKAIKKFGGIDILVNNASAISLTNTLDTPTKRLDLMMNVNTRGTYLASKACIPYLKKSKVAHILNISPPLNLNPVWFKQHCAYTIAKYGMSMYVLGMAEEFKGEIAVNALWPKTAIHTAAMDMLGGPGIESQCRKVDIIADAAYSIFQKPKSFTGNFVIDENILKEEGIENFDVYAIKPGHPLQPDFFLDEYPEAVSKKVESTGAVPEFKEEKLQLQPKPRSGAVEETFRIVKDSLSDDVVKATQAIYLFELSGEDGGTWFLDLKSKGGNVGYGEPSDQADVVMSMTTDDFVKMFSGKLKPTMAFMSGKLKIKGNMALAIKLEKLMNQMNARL
# UniProt O43390: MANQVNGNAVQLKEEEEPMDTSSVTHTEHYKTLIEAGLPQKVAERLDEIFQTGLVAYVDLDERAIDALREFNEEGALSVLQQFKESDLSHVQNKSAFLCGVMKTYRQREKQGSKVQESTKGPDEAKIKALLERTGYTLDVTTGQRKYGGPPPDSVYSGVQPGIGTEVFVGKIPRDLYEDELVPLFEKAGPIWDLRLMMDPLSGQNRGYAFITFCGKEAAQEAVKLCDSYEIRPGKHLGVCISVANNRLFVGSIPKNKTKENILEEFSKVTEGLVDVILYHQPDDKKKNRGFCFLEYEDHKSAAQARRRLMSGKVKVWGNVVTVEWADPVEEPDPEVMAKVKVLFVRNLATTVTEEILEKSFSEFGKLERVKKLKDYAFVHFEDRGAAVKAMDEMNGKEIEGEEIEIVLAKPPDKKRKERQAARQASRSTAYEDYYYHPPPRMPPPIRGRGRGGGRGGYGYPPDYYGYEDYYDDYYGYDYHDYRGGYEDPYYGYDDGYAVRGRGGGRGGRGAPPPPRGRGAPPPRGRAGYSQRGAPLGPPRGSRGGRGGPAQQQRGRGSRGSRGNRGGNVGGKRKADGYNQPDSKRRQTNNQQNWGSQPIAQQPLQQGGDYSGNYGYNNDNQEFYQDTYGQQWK
# UniProt P08238, whole entry, looked up: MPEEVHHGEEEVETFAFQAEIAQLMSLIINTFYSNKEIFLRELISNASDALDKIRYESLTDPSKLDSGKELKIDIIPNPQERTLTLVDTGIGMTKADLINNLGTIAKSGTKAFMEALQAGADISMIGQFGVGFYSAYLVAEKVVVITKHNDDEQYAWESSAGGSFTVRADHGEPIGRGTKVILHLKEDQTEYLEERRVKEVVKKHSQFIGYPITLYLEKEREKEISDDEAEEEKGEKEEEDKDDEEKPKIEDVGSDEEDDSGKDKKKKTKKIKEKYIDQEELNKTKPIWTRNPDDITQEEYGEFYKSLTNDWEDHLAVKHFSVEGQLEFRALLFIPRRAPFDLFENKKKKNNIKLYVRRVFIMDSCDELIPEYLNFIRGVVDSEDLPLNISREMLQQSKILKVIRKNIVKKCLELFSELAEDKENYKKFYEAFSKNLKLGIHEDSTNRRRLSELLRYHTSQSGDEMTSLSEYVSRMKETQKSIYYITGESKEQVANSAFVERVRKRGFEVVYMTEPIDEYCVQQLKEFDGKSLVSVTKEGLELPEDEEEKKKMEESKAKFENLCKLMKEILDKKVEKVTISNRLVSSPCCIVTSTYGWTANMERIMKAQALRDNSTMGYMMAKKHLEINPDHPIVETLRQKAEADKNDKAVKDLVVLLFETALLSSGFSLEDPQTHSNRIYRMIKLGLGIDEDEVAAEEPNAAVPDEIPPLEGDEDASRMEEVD
# UniProt Q9UGU5: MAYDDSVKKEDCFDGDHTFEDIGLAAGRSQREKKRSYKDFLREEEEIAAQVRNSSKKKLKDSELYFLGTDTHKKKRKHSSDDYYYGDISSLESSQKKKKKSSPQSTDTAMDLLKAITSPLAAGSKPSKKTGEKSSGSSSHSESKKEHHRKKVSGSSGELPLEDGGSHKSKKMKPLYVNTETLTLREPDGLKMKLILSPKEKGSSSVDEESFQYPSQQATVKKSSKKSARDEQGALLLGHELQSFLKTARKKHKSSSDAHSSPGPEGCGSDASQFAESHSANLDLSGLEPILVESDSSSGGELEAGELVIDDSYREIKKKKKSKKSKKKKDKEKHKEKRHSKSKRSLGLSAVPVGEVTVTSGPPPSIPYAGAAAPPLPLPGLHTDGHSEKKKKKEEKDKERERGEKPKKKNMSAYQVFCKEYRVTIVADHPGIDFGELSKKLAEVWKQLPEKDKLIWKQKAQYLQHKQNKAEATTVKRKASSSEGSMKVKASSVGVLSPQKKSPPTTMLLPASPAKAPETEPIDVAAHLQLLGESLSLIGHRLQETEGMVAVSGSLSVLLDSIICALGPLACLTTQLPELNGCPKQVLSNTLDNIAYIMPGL
# UniProt Q00613: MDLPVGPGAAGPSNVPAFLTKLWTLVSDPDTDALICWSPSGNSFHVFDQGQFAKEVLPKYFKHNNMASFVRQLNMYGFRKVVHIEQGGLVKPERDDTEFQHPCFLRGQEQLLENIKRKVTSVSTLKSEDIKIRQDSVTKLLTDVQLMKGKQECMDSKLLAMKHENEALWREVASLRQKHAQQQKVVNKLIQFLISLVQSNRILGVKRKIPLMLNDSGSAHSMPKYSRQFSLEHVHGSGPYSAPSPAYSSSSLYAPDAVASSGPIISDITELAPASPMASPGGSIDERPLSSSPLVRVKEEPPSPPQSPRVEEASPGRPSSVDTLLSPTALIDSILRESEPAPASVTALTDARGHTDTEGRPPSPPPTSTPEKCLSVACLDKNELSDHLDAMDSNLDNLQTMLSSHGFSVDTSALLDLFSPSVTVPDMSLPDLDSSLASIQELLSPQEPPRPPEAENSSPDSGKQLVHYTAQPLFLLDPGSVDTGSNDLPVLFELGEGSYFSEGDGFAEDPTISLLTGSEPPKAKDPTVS
# UniProt Q99714: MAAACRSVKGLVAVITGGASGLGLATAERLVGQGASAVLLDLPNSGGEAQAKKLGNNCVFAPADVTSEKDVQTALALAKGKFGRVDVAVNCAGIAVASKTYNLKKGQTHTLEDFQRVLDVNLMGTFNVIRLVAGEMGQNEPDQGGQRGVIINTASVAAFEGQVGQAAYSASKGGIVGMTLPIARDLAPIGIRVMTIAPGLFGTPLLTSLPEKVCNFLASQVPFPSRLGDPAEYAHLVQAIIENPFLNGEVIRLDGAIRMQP
# Some of the results follow.
# Compound: CC1Cc2ccccc2N1C(=O)C1CCCN(C1)C(=O)CCl (mixture of isomers) [TRIM25 ligand 11 (diastereomer mixture)]
# Test: probe-labelled cysteine peptide fold change vs DMSO (competition) (log2 fold change); higher = less target engagement (more negative = stronger competition)
# Conditions: THP-1, incubation time: 4 h
# 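Further: competitive chemoproteomic profiling in live THP-1 cells with an iodoacetamide desthiobiotin (IA-DTB) probe, comparing probe-labelled peptide intensities in compound-treated cells against DMSO-treated controls.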
Target,probe-labelled cysteine peptide fold change (10 µM),probe-labelled cysteine peptide fold change (50 µM)
HP1BP3_Q5SSJ5_412_GFSGTFQLCFPYYPSPGVLFPK (UniProt Q5SSJ5),-0.137,-0.378
HNRNPL_P14866_472_QPAIMPGQSYGLEDGSCSYK (UniProt P14866),-0.154,-0.0544
HMMR_O75330_242_LLEYIEEISCASDQVEK (UniProt O75330),-0.148,0.0284
HSPA8_P11142_603_VCNPIITK (UniProt P11142),-0.0745,-0.00601
HSPH1_Q92598_34_CTPSVISFGSK (UniProt Q92598),-0.12,-0.058
HSDL2_Q6YN16_166_QHCAYTIAK (UniProt Q6YN16),0.021,0.112
HNRNPU_Q00839_450_PLFPHVLCHNCAVEFNFGQK (UniProt Q00839),0.107,0.085
HNRNPR_O43390_99_SAFLCGVMK (UniProt O43390),0.01,-0.0266
HSP90AB1_P08238_521_GFEVVYMTEPIDEYCVQQLK (UniProt P08238),0.0146,0.00854
HMGXB4_Q9UGU5_418_NMSAYQVFCK (UniProt Q9UGU5),0.131,0.196
HSF1_Q00613_378_CLSVACLDK (UniProt Q00613),0.0176,-0.171
HSD17B10_Q99714_58_KLGNNCVFAPADVTSEK (UniProt Q99714),0.11,0.0296

# Looked up one by one from above:
Target,probe-labelled cysteine peptide fold change (10 µM),probe-labelled cysteine peptide fold change (50 µM)
HNRNPR_O43390_99_SAFLCGVMK (UniProt O43390),0.01,-0.0266
HSPH1_Q92598_34_CTPSVISFGSK (UniProt Q92598),-0.12,-0.058
